For at least one compound, name, drawing or mass did not settle the structure. Some entries share one result that the patent states for a list of compounds.
Target: Mcl-1 (Homo sapiens, UniProt Q07820)
Test: FP-based binding assay, Mcl-1
Details: for no binding to Mcl-1 up to (concentration): FP assay

Protein sequences, listed by entry. Tags and fused reporters are not part of them. Residues count along the entry.
UniProt Q07820, 171-327: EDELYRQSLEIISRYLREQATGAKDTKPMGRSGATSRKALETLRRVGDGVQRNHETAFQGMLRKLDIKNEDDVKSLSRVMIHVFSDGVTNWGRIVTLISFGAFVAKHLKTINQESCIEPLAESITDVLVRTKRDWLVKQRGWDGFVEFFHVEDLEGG

| SMILES | Kd (saturation experiments, tracer 2 nM, read-out: Kd of fluorescent probe to Mcl-1) [nM] | no binding to Mcl-1 up to (concentration) [µM] |
| --- | --- | --- |
| CC[C@H](C)[C@H](NC(=O)[C@H](CC(N)=O)NC(=O)[C@H](CCCNC(=N)N)NC(=O)[C@@H](NC(=O)[C@@H](NC(=O)[C@H](CC(=O)O)NC(=O)[C@H](CCC(=O)O)NC(=O)[C@H](CCC(N)=O)NC(=O)c1ccc2c(c1)C1(OC2=O)c2ccc(O)cc2Oc2cc(O)ccc21)[C@@H](C)CC)[C@@H](C)CC)C(=O)N[C@@H](C)C(=O)N[C@@H](CCCNC(=N)N)C(=O)N[C@@H](Cc1c[nH]cn1)C(=O)N[C@@H](CC(C)C)C(=O)N[C@@H](C)C(=O)N[C@@H](CCC(N)=O)C(=O)N[C@H](C(=O)NCC(=O)N[C@@H](CC(=O)O)C(=O)N[C@@H](CO)C(=O)N[C@@H](CCSC)C(=O)N[C@@H](CC(=O)O)C(=O)N[C@@H](CCCNC(=N)N)C(=O)O)C(C)C [Flu-BID, reference compound] | 34 ± 3.5 | – |
| CS(=O)(=O)Nc1cc(SCC(=O)O)c(O)c2ccccc12 [Compound 21, 2-((1-Hydroxy-4-(methylsulfonamido)naphthalen-2-yl)thio)acetic acid] | – | > 200 |
| O=C(O)CCSc1cc(NS(=O)(=O)c2cccc3ccccc23)c2ccccc2c1O [Compound 35] | – | > 50 |

— patent US9486422B2, “Small molecule inhibitors of Mcl-1 and the uses of thereof” (THE REGENTS OF THE UNIVERSITY OF MICHIGAN, priority 2011, dated 2016)
